# In the supplement of paper PMC7125110:
# ± gives the standard error. Many entries were measured with a wide error.
# B1: glmS ribozyme (parent)
# chain: AUAAAAGCGCCAGAACUACAGAAAUGUAGUUGACGAGGAGGAGGUUUAUCGAAUUUUCGGCGGAUGCCUCCAAA
# Variants of: B1
# Assay: self-cleavage kobs at 40 uM GlcN6P; higher = faster cleavage; RNA array
# Details: with glucosamine-6-phosphate
# Procedure, shortened: (§1)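 Sequenced MiSeq chips were the platform: E. coli RNA polymerase transcribed barcoded ribozyme variants on them in situ, and a hybridised Cy3 probe tracked these at 37 °C. After glucosamine-6-phosphate (40 μM to 10 mM) in HEPES/KCl/Mg(OAc)2 buffer was flowed in, tiles were imaged over ~14 h. Signals normalised to baseline and to non-cleaving reference variants were reduced to per-tile medians and fit to one- or two-exponential decays to obtain kobs. kcat and KM were derived through weighted Michaelis–Menten fits across concentrations.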
row,Variant,self-cleavage kobs at 40 uM GlcN6P
1,AUAAAAGCGCCAGAACUACAGAAAUGUAGUUGUCGAGGAGGAGGUUUAUGGAAUUUUCGGCGGAUGCCUCCAAA [A33U C50G],3.06e-05 ± 1.7e-05 s⁻¹
2,AUAAAAGCGCCAGGACUACAGAAAUGUAGUUGACGAGGAGGAGGUUUUUCGAAUUUUCGGCGGAUGCCGCCAAA [A14G A48U U69G],2.51e-05 ± 2.5e-05 s⁻¹
3,AUAAAAGCGCCAGAACUACAGAAAUGUAGUUAACGAGGAGGAGGUUUAUUGAAUUUUCGGCGGAUGCCUGCAAA [G32A C50U C70G],2.68e-05 ± 2.4e-05 s⁻¹
4,AUAAAAGCGCCAGAACUACAGAAAUGUAGUUAACGAGGUGGAGGUUUAUCGAAUUUUCGGCGGAUGCCUCCAAA [G32A A39U],1.26e-05 ± 9.9e-06 s⁻¹
5,AUAAAAGCGCCAGAACUACAGAAAUGUAGCGGACGAGGAGGAGGUUUAUCGAAUUUUCGGCGGAUGCCUGCAAA [U30C U31G C70G],3.3e-05 ± 2.8e-05 s⁻¹
6,AUAAAAGCGCCAGUACUACAGAAAUGUAAUUGACGAGGAGGAGGUUUAUCGAAUUUUCGGCGGAUGCCUCCAAA [A14U G29A],1.54e-05 ± 1.4e-05 s⁻¹
7,AUAAAAGCGCCAGAACUACAGAAAUGUAGUUGACGAGGUGUAGGUUUAUCGAAUUUUCGGCGGAUGCCUCCAAA [A39U G41U],2e-05 ± 1.1e-05 s⁻¹
8,AUAAAAGCGCCAGAACUACAGAAAUGUAGUUGAGGAGGAGGAGGUUUAGCGAAUUUUCGGCGGAUGUCGCAAAA [C34G U49G C67U U69G C71A],2e-05 ± 2e-05 s⁻¹
9,AUAAAAGCGCCAGAACUACAGAAAUGUAUUUAACGAGGUGGAGGUUUAUCGAAUUUUCGGCGGAUGCCUCCAAA [G29U G32A A39U],3.06e-05 ± 2e-05 s⁻¹
10,AUAAAAGCGCCAGACCUACAGAAAUGUAGCUGACGAGGAGGAGGUUUAUCGAAUUUUCGGCGGAUGCCUAGAAA [A15C U30C C70A C71G],5.3e-05 ± 3e-05 s⁻¹
11,AUAAAAGCGCCAGAACUACAGAAAUGUAGCUGACGAGGAGGAGGUUUAUCGUAUUUUCGGCGGAUGUCCCAAAA [U30C A52U C67U U69C C71A],2.75e-05 ± 2.6e-05 s⁻¹
12,AUAAAAGCGCCAGAACUAAAGAAAUGUAGUUGACGAGGAGGAGGUUUAUCGAAUUUUCGGCGGAUGGCUCCAAA [C19A C67G],3.26e-05 ± 1.7e-05 s⁻¹
13,AUAAAAGCGCCAGAACUACAGAAAUGUAGCUGACGAGGAGGAGGAUUAUCGAAUUUUCGGCGGAUGCCUCCAAA [U30C U45A],2.63e-05 ± 2e-05 s⁻¹
14,AUAAAAGCGCCACAACUACAGAAAUGUAGUUGACGAGGAGGAGGUUUAUGGAAUUUUCGGCGGAUGCCUCCAAA [G13C C50G],2.9e-05 ± 2.3e-05 s⁻¹
15,AUAAAAGCGCCAGCACUACAGAAAUGUAGUUAACGAGGAGGAGGUUUAUCGAAUUUUCGGCGGAUGCCGCCAAA [A14C G32A U69G],5.06e-05 ± 3e-05 s⁻¹
16,AUAAAAGCGCCAGAACUACAGAAAUGUAGUUGACGAGGAAGAGGUUUAUCGAGUUUUCGGCGGAUGCCUACAAA [G40A A53G C70A],2.25e-05 ± 1.9e-05 s⁻¹
17,AUAAAAGCGCCAGACCUACAGAAAUGUAGUUGACGAGGAGGAGGUUGAUCGAAUUUUCGGCGGAUGCGUCCAAA [A15C U47G C68G],3.98e-05 ± 2e-05 s⁻¹
18,AUAAAAGCGCCAGAACUACAGAAAUGUAGUUGACGAGGGGGAGGUUUAUGGAAUUUUCGGCGGAUGCCUCCAAA [A39G C50G],2.33e-05 ± 1.7e-05 s⁻¹
19,AUAAAAGCGCCACAACUACAGAAAUGUAGUUGACGAGGAGGAGGUUUAUCGAAUUUUGGGGGGAUGCCUCCAAA [G13C C58G C61G],4.19e-05 ± 2.4e-05 s⁻¹
20,AUAAAAGCGCCAGUACUACAGAAAUGUAGUUGACGAGGAGGAGGUUUAUCAAAUUUUUGGGGGAUGCCUCCAAA [A14U G51A C58U C61G],2.55e-05 ± 2.1e-05 s⁻¹
21,AUAAAAGCGCCAGAACUACAGAAAUGUAGUUGAAGAGGAGGAGGUUGAUCGUAUUUUCGGCGGAUGCCUACAAA [C34A U47G A52U C70A],3.27e-05 ± 2.8e-05 s⁻¹
22,AUAAAAGCGCCAGGACUACAGAAAUGUAGUUGACGAGGAGGAGGUUUAUUGCAUUUUCGGCGGAUGCCUACAAA [A14G C50U A52C C70A],3.4e-05 ± 2e-05 s⁻¹
23,AUAAAAGCGCCAGAAGUACAGAAAUGUAGUUGACGAGGCGGAGGUUUAUCGAAGUUUCGGCGGAUGCCUCCAAA [C16G A39C U54G],2.28e-05 ± 2.3e-05 s⁻¹
24,AUAAAAGCGCCAGAAGUACAGAAAUGUAGUUGACGAGGAGGAGGUUUAUCGAAUUUUCGGCGGAUGCCUCGAAA [C16G C71G],1.86e-05 ± 1.8e-05 s⁻¹
25,AUAAAAGCGCCAGAACUACAGAAAUGUAGAUGACGAGGCGGAGGUUUAUCGAAUUUUCGGCGGAUGCCUCCAAA [U30A A39C],2.65e-05 ± 1.5e-05 s⁻¹
26,AUAAAAGCGCCAGAACUACAGAAAUGUAGUUGACGAAGAGGAGGUUUAUCGAGUUUUCGGCGGAUACCUCCAAA [G37A A53G G66A],4.54e-05 ± 2.6e-05 s⁻¹
27,AUAAAAGCGCCAGAAGUACAGAAAUGUAGUUAACGAGGAGGAGGUUUAUCGAAUUUUCGGCGGAUGCCUCCAAA [C16G G32A],1.48e-05 ± 9.7e-06 s⁻¹
28,AUAAAAGCGCCAGUACUACAGAAAUGUACUUGACGAGGAGGAGGUGUAUCGAAUUUUCGGCGGAUGCCUACAAA [A14U G29C U46G C70A],3.1e-05 ± 2.4e-05 s⁻¹
29,AUAAAAGCGCCAGAACUACAGAAAUGUAGUUGAAGAGGAGGAGGUUUAUCGAAUUUUCGGCGGAUGGAUCCAAA [C34A C67G C68A],3.83e-05 ± 2.1e-05 s⁻¹
30,AUAAAAGCGCCAGAACUACAGAAAUGUAGUUGACGUGGAGGAGGUUUAUGGAAUUUUCGGCGGAUUCCUCCAAA [A36U C50G G66U],4.11e-05 ± 2.7e-05 s⁻¹

# Part of the list above, reformatted.
row | Variant | self-cleavage kobs at 40 uM GlcN6P
27 | AUAAAAGCGCCAGAAGUACAGAAAUGUAGUUAACGAGGAGGAGGUUUAUCGAAUUUUCGGCGGAUGCCUCCAAA [C16G G32A] | 1.48e-05 ± 9.7e-06 s⁻¹
28 | AUAAAAGCGCCAGUACUACAGAAAUGUACUUGACGAGGAGGAGGUGUAUCGAAUUUUCGGCGGAUGCCUACAAA [A14U G29C U46G C70A] | 3.1e-05 ± 2.4e-05 s⁻¹

# Variants of: B1
# Assay: self-cleavage kobs at 640 uM GlcN6P; higher = faster cleavage; RNA array
# Details: with glucosamine-6-phosphate
# Procedure, shortened: as §1
row,Variant,self-cleavage kobs at 640 uM GlcN6P
1,AUAAAAGCGCCAGAACUACAGAAAUGUAGUUGUCGAGGAGGAGGUUUAUGGAAUUUUCGGCGGAUGCCUCCAAA [A33U C50G],0.000468 ± 0.00028 s⁻¹
2,AUAAAAGCGCCAGUACUACAGAAAUGUACUUGACGAGGAGGAGGUGUAUCGAAUUUUCGGCGGAUGCCUACAAA [A14U G29C U46G C70A],5.34e-05 ± 3.5e-05 s⁻¹

# Variants of: B1
# Assay: self-cleavage kobs at 160 uM GlcN6P; higher = faster cleavage; RNA array
# Details: with glucosamine-6-phosphate
# Procedure, shortened: as §1
row,Variant,self-cleavage kobs at 160 uM GlcN6P
1,AUAAAAGCGCCAGAACUACAGAAAUGUAGUUGUCGAGGAGGAGGUUUAUGGAAUUUUCGGCGGAUGCCUCCAAA [A33U C50G],3.32e-05 ± 2.5e-05 s⁻¹

# Variants of: B1
# Assay: self-cleavage kobs at 10000 uM GlcN6P; higher = faster cleavage; RNA array
# Details: with glucosamine-6-phosphate
# Procedure, shortened: as §1
row,Variant,self-cleavage kobs at 10000 uM GlcN6P
1,AUAAAAGCGCCAGGACUACAGAAAUGUAGUUGACGAGGAGGAGGUUUUUCGAAUUUUCGGCGGAUGCCGCCAAA [A14G A48U U69G],2.79e-05 ± 1.5e-05 s⁻¹
2,AUAAAAGCGCCAGACCUACAGAAAUGUAGUUGACGAGGAGGAGGUUGAUCGAAUUUUCGGCGGAUGCGUCCAAA [A15C U47G C68G],2.09e-05 ± 1.9e-05 s⁻¹
3,AUAAAAGCGCCAGGACUACAGAAAUGUAGUUGACGAGGAGGAGGUUUAUUGCAUUUUCGGCGGAUGCCUACAAA [A14G C50U A52C C70A],2.4e-05 ± 2.3e-05 s⁻¹

# Variants of: B1
# Assay: self-cleavage kobs at 2500 uM GlcN6P; higher = faster cleavage; RNA array
# Details: with glucosamine-6-phosphate
# Procedure, shortened: as §1
row,Variant,self-cleavage kobs at 2500 uM GlcN6P
1,AUAAAAGCGCCACAACUACAGAAAUGUAGUUGACGAGGAGGAGGUUUAUGGAAUUUUCGGCGGAUGCCUCCAAA [G13C C50G],3.87e-05 ± 3e-05 s⁻¹
2,AUAAAAGCGCCAGAACUACAGAAAUGUAGUUGACGAGGGGGAGGUUUAUGGAAUUUUCGGCGGAUGCCUCCAAA [A39G C50G],2.08e-05 ± 1.4e-05 s⁻¹
